These are yes or no findings as the source states them, for the method shown. In cells and extracts the contact can be indirect. Some results given as binding are weak or reduced against the parent protein; the word gives no strength.

Chains of the proteins cited; added tags and fusions are not shown. Residues count along the entry.
UniProt P46937: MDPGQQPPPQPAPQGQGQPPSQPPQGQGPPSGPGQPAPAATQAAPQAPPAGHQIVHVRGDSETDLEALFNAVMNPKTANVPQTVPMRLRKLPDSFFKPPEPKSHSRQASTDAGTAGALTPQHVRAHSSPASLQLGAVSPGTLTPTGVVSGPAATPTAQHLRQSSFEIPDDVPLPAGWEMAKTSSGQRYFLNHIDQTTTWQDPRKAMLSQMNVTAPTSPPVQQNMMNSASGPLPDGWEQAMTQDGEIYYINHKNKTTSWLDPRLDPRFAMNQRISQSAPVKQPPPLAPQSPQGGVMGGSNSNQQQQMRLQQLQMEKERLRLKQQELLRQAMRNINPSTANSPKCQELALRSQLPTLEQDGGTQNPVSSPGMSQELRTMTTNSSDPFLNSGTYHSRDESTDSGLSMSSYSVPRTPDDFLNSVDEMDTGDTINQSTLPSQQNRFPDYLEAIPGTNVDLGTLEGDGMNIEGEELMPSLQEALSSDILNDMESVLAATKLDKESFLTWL
UniProt Q15303, residues 26-1308: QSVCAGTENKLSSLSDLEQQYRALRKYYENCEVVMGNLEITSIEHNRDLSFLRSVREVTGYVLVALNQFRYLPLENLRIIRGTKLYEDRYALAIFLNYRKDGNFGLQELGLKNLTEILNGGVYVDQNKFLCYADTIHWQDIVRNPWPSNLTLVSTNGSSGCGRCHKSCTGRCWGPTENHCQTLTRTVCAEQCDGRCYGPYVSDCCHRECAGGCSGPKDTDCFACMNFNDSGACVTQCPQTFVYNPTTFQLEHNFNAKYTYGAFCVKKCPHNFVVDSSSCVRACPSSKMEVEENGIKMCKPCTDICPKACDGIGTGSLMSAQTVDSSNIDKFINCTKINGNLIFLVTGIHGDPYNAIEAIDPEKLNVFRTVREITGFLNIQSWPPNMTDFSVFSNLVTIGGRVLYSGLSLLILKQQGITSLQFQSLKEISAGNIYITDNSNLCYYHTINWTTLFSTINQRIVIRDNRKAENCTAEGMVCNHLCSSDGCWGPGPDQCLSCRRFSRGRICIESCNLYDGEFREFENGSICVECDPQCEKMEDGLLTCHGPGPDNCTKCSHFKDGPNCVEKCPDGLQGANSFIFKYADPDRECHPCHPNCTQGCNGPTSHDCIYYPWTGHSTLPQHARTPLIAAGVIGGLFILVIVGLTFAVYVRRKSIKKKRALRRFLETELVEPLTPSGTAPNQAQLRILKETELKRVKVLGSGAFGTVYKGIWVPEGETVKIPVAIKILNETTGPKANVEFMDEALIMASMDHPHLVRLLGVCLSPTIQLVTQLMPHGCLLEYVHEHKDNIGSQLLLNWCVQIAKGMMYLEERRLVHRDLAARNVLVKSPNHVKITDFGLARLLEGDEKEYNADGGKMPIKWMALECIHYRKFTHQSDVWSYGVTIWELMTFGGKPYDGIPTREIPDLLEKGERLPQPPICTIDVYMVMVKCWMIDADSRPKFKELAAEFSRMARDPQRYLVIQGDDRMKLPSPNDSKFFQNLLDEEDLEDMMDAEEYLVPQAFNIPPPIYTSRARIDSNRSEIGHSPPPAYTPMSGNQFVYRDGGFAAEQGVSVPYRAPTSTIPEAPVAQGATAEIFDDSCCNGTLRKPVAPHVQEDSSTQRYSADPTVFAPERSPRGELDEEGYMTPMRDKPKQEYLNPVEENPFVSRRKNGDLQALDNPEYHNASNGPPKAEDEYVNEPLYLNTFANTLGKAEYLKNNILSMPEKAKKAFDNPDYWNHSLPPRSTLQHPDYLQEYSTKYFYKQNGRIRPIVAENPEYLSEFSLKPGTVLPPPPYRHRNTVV

The target in assay [1] is YAP1 (human (endogenous in MKN45TR and NCI-N87TR)) (UniProt P46937). In words: co-IP; MKN45TR and NCI-N87TR cell lysates pre-cleared with protein A/G agarose beads; HER4 and YAP1 antibodies each used to pull down interacting proteins; western blotting; IgG as control. For orientation: A western blot detects proteins with antibodies after separation by electrophoresis.
Assay [2] has as its target HER4 (human (endogenous in MKN45TR and NCI-N87TR)) (UniProt Q15303). The assay is described as above.

Consider “HER4 (from UniProt Q15303 26-1308) (receptor)”, for which the binding entry in assay [1] is “binds”.
In the case of YAP1 (from UniProt P46937 1-504), the binding entry in assay [2] is “binds”.

The values are drawn from article PMC5978807.
